# Results: article PMC10342533, “Novel Tetrazole Derivatives Targeting Tubulin Endowed with Antiproliferative Activity against Glioblastoma Cells” (International Journal of Molecular Sciences, 2023)
# Read-outs that look alike come from different tables or passages of the source.
# Tests used:
# [1] = tested on: HepG2 (hepatocellular carcinoma); assay: Cell growth inhibition, MTT assay, HepG2; format: cell-based; details: Homo sapiens, HepG2, 72 h, read-out: IC50 HepG2
# Procedure: (§1) The ability of the synthesized compounds to inhibit the cell proliferation of human cancer cell lines was assayed by measuring cell viability through the use of the MTT method 72 h after treatment. For this purpose, representative cell lines of the most frequent kinds of cancer were selected, including the following: HeLa (cervix epithelioid carcinoma), MCF7 (breast adenocarcinoma), U87 MG (glioblastoma), T98G (temozolomide resistant glioblastoma), HepG2 (hepatocellular carcinoma), HCT8 (colorectal carcinoma), and HT-29 (colon adenocarcinoma).
# (§2) The cell lines were obtained from ATTC (Manassas, VA, USA). […] The cells were periodically tested for Mycoplasma infection by using a MycoAlert kit (Lonza, Norwest, Australia), and only Mycoplasma-free cells were used in the experiments.
# (§3) Then, every compound was added (10 µL/well) to a final concentration of 10 µM. Untreated cells were used as negative controls. The antiproliferative activity of compounds was measured 72 h after drug exposure through the MTT assay. […] For this purpose, compounds were used at different concentrations, ranging from 10^−10 to 10^−2 M. Measurements were performed in triplicate, and each experiment was repeated three times. The IC50 values were determined using Origin software (version 9.6, OriginLab, Washington, DC, USA).
# [2] = tested on: T98G (temozolomide resistant glioblastoma); assay: Cell growth inhibition, MTT assay, T98G; format: cell-based; details: Homo sapiens, read-out: IC50 T98G
# Procedure: as §1, §2, §3
# [3] = tested on: HCT8 (colorectal carcinoma); assay: Cell growth inhibition, MTT assay, HCT8; format: cell-based; details: Homo sapiens, HCT-8, 72 h, read-out: IC50 HCT8
# Procedure: as §1, §2, §3
# U87 MG (glioblastoma) = assay: Cell growth inhibition, MTT assay, U87 MG; format: cell-based; details: Homo sapiens, U-87 MG, read-out: IC50 U87 MG
# Procedure: as §1, §2, §3
# [4] = tested on: HT-29 (colon adenocarcinoma); assay: Cell growth inhibition, MTT assay, HT-29, without or with verapamil; format: cell-based, human
# Procedure: as §1
# Multidrug resistance (MDR) proteins, especially P-glycoprotein (P-gp), are often involved in resistance mechanisms affecting tubulin-binding drugs that are frequently related to the failure of cancer therapies. […] These pumps are also part of the blood–brain barrier.
# as §2, §3
# [5] = tested on: HeLa (cervix epithelioid carcinoma); assay: Cell growth inhibition, MTT assay, HeLa; format: cell-based; details: Homo sapiens, read-out: IC50 HeLa
# Procedure: as §1, §2, §3
smiles,measurement,setting,value
"COc1cc2c(c(OC)c1OC)-c1ccc(OC)c(=O)cc1[C@@H](NC(C)=O)CC2 [Colchicine, colchicine, reference compound]",IC50,[1],29 nM
same,IC50,[2]; 72 h,37 nM
same,IC50,[2],37.2 ± 0.1 nM
same,IC50,[3],291 nM
same,IC50,U87 MG (glioblastoma); 72 h,31 nM
same,IC50,U87 MG (glioblastoma),31.2 ± 0.2 nM
same,IC50,"[4]; Homo sapiens, HT-29, 72 h, read-out: IC50 HT-29",375 nM
same,IC50,"[4]; Homo sapiens, HT-29, read-out: IC50 HT-29",375 ± 4 nM
same,IC50,"[4]; read-out: IC50 HT-29*, MTT, mean ± SD, Table S1, in the presence of verapamil (10 µM)",302 ± 3.1 nM
same,IC50,[5]; 72 h,9 nM
same,IC50,[5],9.4 ± 0.1 nM
